Laboratory results: US20150269307A1, “TARGET INHIBITION MAP SYSTEM FOR COMBINATION THERAPY DESIGN AND METHODS OF USING SAME” (Texas Tech University System, priority 2014, published 2015)

System: human patient-derived xenografts
Experiment: Xenograft-derived chemical screen (Supplemental Table 3)
Type: cell-based
Details: 60 agent PPTI screen
Experimental: Three chemical screens were applied to the U23674 primary tumor cell culture. […] The target inhibition profile is a quantified description of the inhibitory properties of the compound on the numerous protein targets preset on the PPTI screen.
To screen the chemical agents, cell cultures were plated in 384 well plates at a seeding density of 2000 cells per well over graded concentrations of the numerous compounds. The chemical concentrations were between 10 nM and […] depending on the activity range of the compounds. The cells were incubated in DMEM supplemented with 1% penicillin streptomycin, and 10% fetal bovine serum for 72 hours. Chemical sensitivity was determined by an MTS cell viability assay after the 72 hour incubation period. The sensitivity responses at the different concentrations were used to determine the chemical IC50 using a hill curve fitting algorithm with variable hill slope coefficients.

IC50: 1970 nM
Compound: O=C(CCCCCCC(=O)Nc1ccccc1)NO [vorinostat]
